{"source": "patent US9797883B2", "about": "“Re-trafficking of herg reverses long QT syndrome 2 phenotype in human iPS-derived cardiomyocytes” (Singapore Health Services Pte Ltd, priority 2013, dated 2017)", "key": {"[1]": {"system": "LQTS2-EBs", "test": "Microelectrode array (MEA) extracellular field potential recordings, LQTS2", "assay_type": "cell-based, human", "settings": "100 nM E-4031, LQTS2-contracting EBs, EBs with EADs / EBs tested", "source_text": "(§1) To characterize the electrophysiological properties of the hiPS-CMs, a microelectrode array (MEA) recording system (Multichannel Systems, Reutlingen, Germany) was used as described previously. Briefly, contracting areas were micro-dissected and plated on MEA plates, allowed to adjust for 72 hrs before recording. All clusters were monitored for their beating abilities (beats/min) under the microscope during the 72 hr period. Clusters that maintained relatively uniform beating rates were then subjected to drugs. The MEA system allows simultaneous recordings from 60 titanium nitride-coated gold electrodes (30 μm) at high spatial (200 μm) and temporal (15 kHz) resolutions. All stock drugs were diluted in medium (2 mL) to assess the effects on the electrophysiological properties. […]. MEA clip along with the beating clusters was maintained on 37° C. throughout the duration of experiments. Care was also taken that all buffers including the medium utilized during all experimentation were pre-warmed to 37° C. All tested drugs were procured from Sigma-Aldrich, MO, USA. All extracellular recordings were performed for 180 seconds at baseline and at 5 minutes after drug application at 37° C. Data were recorded using MC Rack software (Multichannel System) and the recordings were used to determine the local field potential duration (FPD). […]"}, "[2]": {"system": "control-EBs", "test": "Microelectrode array (MEA) extracellular field potential recordings, control", "assay_type": "cell-based, human", "settings": "100 nM E-4031, control EBs, EBs with EADs / EBs tested", "source_text": "as §1"}}, "data": [{"smiles": "Cc1cccc(CCN2CCC(C(=O)c3ccc(NS(C)(=O)=O)cc3)CC2)n1", "note": "[E-4031]", "values": [{"measurement": "occurrence of early after-depolarizations (EADs)", "setting": "[1]", "value": "14/15"}, {"measurement": "occurrence of early after-depolarizations (EADs)", "setting": "[2]", "value": "2/15"}]}]}
